Reference: patent US8604206B2, “Compositions for preventing and/or treating degenerative disorders of the central nervous system” (Amicus Therapeutics, Inc., priority 2009, dated 2013)

Assay: Compound concentration in tissue of mice of the GCase enhancement study
Format: in vivo, mouse
Conditions: brain
Procedure: The dosing solutions were prepared in water. Compounds were administered over 2 weeks as follows: week 1, Mon-Fri (On), Sat-Sun (Off); week 2, Mon-Thu (On); necropsy on Friday.
Plasma was collected by spinning blood at 2700 g for 10 minutes at 4° C. Liver, spleen, lung, and brain tissues were removed, washed in cold PBS, blotted dry, flash frozen on dry ice, and stored at −80° C. until analysis. GCase levels were measured by homogenizing approximately 50 mg tissue in 500 μL McIlvane (MI) buffer (100 mM sodium citrate, 200 mM sodium phosphate dibasic, 0.25% sodium taurocholate, and 0.1% Triton X-100, pH 5.2) at pH 5.2 for 3-5 seconds on ice with a micro homogenizer. Homogenates were then incubated at room temperature without and with 2.5 mM conduritol-B-epoxide (CBE) for 30 min. Finally, 3.7 mM 4-methylumbeliferryl-β-glucoside (4-MUG) substrate was added and incubated at 37° C. for 60 min. […] Fluorescence was measured on a plate reader for 1 sec/well using 355 nm excitation and 460 nm emission. Total protein was determined in lysates using the MicroBCA kit according to the manufacturer's instructions. A 4-methylumbelliferone (4-MU) standard curve ranging from 1.0 nM to 50 μM was run in parallel for conversion of raw fluorescence data to absolute GCase activity (in the presence and absence of CBE) and expressed as nanomoles of 4-MU released per milligram of protein per hour (nmol/mg protein/hr). GCase levels and protein levels were calculated using Microsoft Excel (Redmond, Wash.) and GraphPad Prism version 4.02.

SMILES	Compound concentration in GCase assay (μM) (10 mg/kg FBE p.o.)	Compound concentration in GCase assay (100 mg/kg FBE p.o.)	Compound concentration in GCase assay (10 mg/kg FBE p.o.)
CC[C@@H](F)[C@H]1CNC[C@@H](O)[C@@H]1O.Cl [(3R,4R,5S)-5-((R)-1-fluoropropyl)-piperidine-3,4-diol hydrochloride]	BLQ	0.0001 µM	
Cl.O[C@H]1[C@H](O)CNC[C@@H]1C(F)F [Cmpd 6, (3R,4R,5S)-5-(Difluoromethyl)piperidine 3,4-diol Hydrochloride]		0.0010 µM	0.0002 µM
